Numbering of substitutions follows the chain as printed. Names may count otherwise. Results are given in words; binding and its absence hold for the method and conditions named. For some of these results: Binding seen in cells or lysates may run through a third protein. Some results given as binding are weak or reduced against the parent protein; the word gives no strength. For some of these results: Tags and fused reporters may be left off the sequences shown.
Key:
[1] = molecular target: T1, HIGH LEAF TEMPERATURE 1 (HT1), split-ubiquitin bait (Arabidopsis thaliana (Col-0 cDNA)) (UniProt Q2MHE4); assay: two-hybrid; pairwise split-ubiquitin yeast two-hybrid (DUALhunter and DUALmembrane 3 kits), strain NMY51; bait in pDHB1 (Cub-LexA-VP16), prey in pPR3-N (NubG); growth on SD-Leu-Trp-His-Ade, X-gal overlay, quantitative beta-galactosidase assay from pools of ten colonies
T1 sequence: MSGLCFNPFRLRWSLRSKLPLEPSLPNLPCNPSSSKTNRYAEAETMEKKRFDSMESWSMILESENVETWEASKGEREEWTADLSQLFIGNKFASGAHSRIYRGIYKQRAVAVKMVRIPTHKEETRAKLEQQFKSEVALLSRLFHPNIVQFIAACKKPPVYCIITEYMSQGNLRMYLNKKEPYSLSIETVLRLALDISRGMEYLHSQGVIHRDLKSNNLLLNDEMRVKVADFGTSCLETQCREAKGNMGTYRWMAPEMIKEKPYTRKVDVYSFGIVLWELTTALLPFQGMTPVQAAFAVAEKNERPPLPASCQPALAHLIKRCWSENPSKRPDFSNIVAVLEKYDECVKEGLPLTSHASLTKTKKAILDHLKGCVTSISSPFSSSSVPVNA

[2] = molecular target: T2, MITOGEN-… PROTEIN KINASE 12 (MPK12), Col-0 version, split-ubiquitin bait (Arabidopsis thaliana (Col-0 cDNA)) (UniProt Q8GYQ5); assay: as above
T2 sequence: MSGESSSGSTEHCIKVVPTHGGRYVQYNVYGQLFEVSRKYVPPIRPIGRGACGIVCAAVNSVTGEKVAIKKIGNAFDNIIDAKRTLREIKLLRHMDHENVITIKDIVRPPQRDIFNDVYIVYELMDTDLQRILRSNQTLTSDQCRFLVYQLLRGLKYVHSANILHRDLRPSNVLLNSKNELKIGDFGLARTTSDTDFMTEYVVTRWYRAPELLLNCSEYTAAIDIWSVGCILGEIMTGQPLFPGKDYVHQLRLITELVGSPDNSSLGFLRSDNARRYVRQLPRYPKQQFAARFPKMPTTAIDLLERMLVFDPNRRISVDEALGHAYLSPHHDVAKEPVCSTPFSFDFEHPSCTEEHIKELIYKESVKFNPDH

[3] = molecular target: T3, HT1, split-YFP fusion for BiFC (Arabidopsis thaliana) (UniProt Q2MHE4); assay: split reporter; ratiometric BiFC with split YFP in agro-infiltrated N. benthamiana leaves, co-infiltrated with SLAC1-CFP internal control and P19; confocal images at 3 dpi
T3 sequence: T1 sequence

[4] = molecular target: T4, HT1 fused to cLUC (Arabidopsis thaliana) (UniProt Q2MHE4); assay: split reporter; split luciferase complementation (nLUC/cLUC) in agro-infiltrated N. benthamiana leaves with P19; bioluminescence after 3 d, CCD camera
T4 sequence: T1 sequence

B1: MITOGEN-… PROTEIN KINASE 12 (MPK12), Col-0 version, split-ubiquitin prey (protein, UniProt Q8GYQ5 1-372)
chain: T2 sequence
binding [1]: binds

B2: MPK12 G53R (Cvi-0 version of MPK12), split-ubiquitin prey (protein, UniProt Q8GYQ5 1-372)
chain: T2 sequence with G53R
binding [1]: binds weakly

B3: HIGH LEAF TEMPERATURE 1 (HT1), split-ubiquitin prey (protein, UniProt Q2MHE4 1-390)
chain: T1 sequence
binding [2]: binds

B4: INDOLE-3-BUTYRIC ACID RESPONSE 5 (IBR5), split-ubiquitin prey (protein, UniProt Q84JU4 1-257)
chain: MRKRERENPCSICGHYHKYEEGEVCGVCGHCMPVSSDTVAPQQVHVSAFPSEILPEFLYLGSYDNASRSELLKTQGISRVLNTVPMCQNLYRNSFTYHGLDNEKVLQFDDAIKFLDQCEKDKARVLVHCMSGKSRSPAVVVAYLMKRKGWRLAESHQWVKQRRPSTDISPEFYQQLQEFEQGIFGSEMMSAMNINDAPTFGFGFPKIDNQAQAPVFNNAPTSSIFSSPASSIPPQEFTFGATPPKPTTGGDIAMDGS
binding [2]: binds

B5: MPK12 (Col-0 version), split-YFP fusion for BiFC (protein, UniProt Q8GYQ5 1-372)
chain: T2 sequence
binding [3]: binds

B6: MPK12 G53R (Cvi-0 version), split-YFP fusion for BiFC (protein, UniProt Q8GYQ5 1-372)
chain: T2 sequence with G53R
binding [3]: binds

B7: MPK12:nLUC (protein, UniProt Q8GYQ5 1-372)
chain: T2 sequence
binding [4]: binds

— publication PMC5147794
